Measurements from “University of Dundee, Small-Polar-MMV Screening Library” (2021), ChEMBL document CHEMBL3988442.

The chains behind the UniProt entries cited, without tags or fusion partners. Residues count along the entry.
UniProt I6X8D2, whole entry: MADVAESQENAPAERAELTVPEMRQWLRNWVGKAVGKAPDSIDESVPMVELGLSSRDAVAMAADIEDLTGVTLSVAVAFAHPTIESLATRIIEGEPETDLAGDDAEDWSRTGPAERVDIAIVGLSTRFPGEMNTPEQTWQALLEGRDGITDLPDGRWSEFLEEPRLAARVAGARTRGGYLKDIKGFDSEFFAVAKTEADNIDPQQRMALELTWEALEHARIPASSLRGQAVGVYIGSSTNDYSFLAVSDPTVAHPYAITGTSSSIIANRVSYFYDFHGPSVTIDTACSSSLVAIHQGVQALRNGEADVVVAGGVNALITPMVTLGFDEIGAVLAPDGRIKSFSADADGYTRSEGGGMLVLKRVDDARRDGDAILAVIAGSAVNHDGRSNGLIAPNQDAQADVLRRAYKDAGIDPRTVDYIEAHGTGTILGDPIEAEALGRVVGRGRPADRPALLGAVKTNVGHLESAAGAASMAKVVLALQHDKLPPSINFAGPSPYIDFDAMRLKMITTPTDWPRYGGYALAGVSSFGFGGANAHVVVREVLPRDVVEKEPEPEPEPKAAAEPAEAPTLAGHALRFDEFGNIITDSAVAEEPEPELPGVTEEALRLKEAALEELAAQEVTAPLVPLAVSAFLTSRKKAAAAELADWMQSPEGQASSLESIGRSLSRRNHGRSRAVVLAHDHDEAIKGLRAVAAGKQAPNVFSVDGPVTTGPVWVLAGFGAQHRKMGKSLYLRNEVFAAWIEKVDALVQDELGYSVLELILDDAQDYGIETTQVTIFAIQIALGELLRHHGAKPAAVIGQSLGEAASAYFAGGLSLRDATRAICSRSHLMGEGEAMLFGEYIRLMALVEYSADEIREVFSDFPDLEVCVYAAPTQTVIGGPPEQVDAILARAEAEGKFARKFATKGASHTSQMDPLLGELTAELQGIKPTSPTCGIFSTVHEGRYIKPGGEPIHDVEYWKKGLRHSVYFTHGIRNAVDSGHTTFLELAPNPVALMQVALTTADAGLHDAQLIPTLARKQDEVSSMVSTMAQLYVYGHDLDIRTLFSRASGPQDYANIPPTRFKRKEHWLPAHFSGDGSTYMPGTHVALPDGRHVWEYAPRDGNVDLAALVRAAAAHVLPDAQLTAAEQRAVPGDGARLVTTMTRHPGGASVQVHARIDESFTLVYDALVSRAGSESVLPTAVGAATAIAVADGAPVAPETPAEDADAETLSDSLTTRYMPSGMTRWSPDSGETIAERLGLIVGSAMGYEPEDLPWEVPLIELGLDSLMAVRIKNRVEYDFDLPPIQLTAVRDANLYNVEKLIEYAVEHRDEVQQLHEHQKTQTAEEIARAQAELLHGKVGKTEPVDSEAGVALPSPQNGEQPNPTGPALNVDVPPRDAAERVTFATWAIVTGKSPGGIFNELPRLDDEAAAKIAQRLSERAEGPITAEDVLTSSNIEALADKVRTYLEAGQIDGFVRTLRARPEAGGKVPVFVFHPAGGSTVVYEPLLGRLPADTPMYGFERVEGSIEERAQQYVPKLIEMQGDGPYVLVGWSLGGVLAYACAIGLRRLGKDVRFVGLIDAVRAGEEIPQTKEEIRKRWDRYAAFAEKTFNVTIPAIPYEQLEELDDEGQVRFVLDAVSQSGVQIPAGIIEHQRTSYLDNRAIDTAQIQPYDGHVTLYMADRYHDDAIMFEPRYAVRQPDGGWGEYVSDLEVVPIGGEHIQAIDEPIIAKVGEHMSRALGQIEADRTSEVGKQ
UniProt Q4DA54, 1-478: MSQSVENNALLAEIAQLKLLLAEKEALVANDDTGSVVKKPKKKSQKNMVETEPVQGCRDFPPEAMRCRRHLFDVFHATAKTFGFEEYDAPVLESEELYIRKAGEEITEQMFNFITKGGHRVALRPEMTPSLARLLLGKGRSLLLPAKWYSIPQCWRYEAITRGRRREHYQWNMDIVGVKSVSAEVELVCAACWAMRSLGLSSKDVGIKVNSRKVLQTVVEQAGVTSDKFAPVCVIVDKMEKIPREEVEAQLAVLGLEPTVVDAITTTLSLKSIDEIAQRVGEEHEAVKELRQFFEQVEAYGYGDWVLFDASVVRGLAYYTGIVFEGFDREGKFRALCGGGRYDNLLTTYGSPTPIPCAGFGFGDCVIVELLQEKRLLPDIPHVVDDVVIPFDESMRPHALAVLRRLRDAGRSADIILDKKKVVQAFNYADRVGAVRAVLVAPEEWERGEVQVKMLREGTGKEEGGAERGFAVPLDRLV
UniProt P9WPC5, whole entry: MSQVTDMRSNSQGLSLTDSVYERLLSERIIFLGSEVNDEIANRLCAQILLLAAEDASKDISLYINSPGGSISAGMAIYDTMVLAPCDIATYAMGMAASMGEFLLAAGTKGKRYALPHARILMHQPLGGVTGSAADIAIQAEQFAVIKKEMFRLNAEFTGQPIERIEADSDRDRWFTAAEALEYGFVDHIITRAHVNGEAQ
UniProt P9WPC3, whole entry partner: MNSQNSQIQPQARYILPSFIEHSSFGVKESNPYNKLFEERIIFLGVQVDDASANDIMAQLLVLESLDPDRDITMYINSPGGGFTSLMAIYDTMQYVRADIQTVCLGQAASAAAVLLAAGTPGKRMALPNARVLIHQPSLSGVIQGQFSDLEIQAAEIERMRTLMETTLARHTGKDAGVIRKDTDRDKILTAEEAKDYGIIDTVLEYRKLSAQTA
UniProt A4I591, 1-473: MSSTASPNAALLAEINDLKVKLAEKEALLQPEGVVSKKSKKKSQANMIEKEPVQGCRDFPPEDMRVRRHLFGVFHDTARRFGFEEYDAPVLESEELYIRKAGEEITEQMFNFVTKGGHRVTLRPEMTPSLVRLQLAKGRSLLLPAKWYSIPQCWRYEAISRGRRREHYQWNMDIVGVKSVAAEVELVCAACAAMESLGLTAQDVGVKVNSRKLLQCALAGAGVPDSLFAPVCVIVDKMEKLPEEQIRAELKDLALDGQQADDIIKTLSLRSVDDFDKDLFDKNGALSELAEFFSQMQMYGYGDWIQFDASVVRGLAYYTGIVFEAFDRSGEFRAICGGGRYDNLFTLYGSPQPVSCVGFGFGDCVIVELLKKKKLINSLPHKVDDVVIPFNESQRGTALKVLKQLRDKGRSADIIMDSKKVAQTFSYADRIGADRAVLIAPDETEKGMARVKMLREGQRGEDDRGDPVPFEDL

A: 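Polyketide synthase Pks13, Mycobacterium tuberculosis (UniProt I6X8D2). Enzyme assay of the thioesterase domain of polyketide synthase 13; the read-out is not stated. Compounds at 30 µM. The record gives no direction; the compounds picked for IC50 retests had high values, so higher reads as stronger inhibition. Of about 67,000 compounds tested this way, about 300 (0.46%) reached 50% or more in at least one test.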
B: 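Histidine-tRNA ligase, Trypanosoma cruzi CL Brener (UniProt Q4DA54). Enzyme assay of histidyl-tRNA synthetase; the read-out is not stated. Tested at 30 µM. Direction is inferred from retests: higher values go with stronger inhibition. About 69,000 compounds were tested under these conditions; 0.045% (about 31) showed 50% or more at least once.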
C: 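Protease assay of ClpP1P2, read by the AMC dye that it sets free. Target: ClpP1P2, Mycobacterium tuberculosis (UniProt P9WPC5 and UniProt P9WPC3). Tested at 50 µM. Higher reads as stronger inhibition, judged from the few compounds that gave an IC50. Most other retested compounds had strongly negative values. About 69,000 compounds were tested under these conditions; 0.015% (about 10) showed 50% or more at least once.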
D: 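Cell assay of Leishmania donovani living inside macrophages; the read-out is not stated. Concentration: 30 µM. The record gives no direction; compounds that gave an IC50 in retests scored well above the rest, so higher reads as stronger inhibition. About 69,000 compounds were tested under these conditions; 1.5% (about 1,000) showed 50% or more at least once.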
E: 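Histidine-tRNA ligase, Leishmania infantum (UniProt A4I591). Enzyme assay of histidyl-tRNA synthetase; the read-out is not stated. Concentration: 30 µM. Higher reads as stronger inhibition (inferred: compounds with an IC50 in retests scored well above the rest). The assay is labelled LdHisRS but filed under L. infantum. About 69,000 compounds were tested under these conditions; 0.6% (about 410) showed 50% or more at least once.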

Each number is a percent effect as filed. How 0% and 100% were set is not recorded. Most values in the screen are low, and negative values occur. Compounds were drawn at random from those tested, without regard to their results.

* Cc1nc(NCCc2ccc(Cl)cc2)cc(C(=O)N2CCOCC2)n1 : B: 5.021%; C: 0.6409%; D: 10.43%; E: 16.04%
* CN(C)CCN(C)S(=O)(=O)CC1CCOCC1 : A: -3.541%; B: 6.316%; C: 5.446%; D: 5.765%; E: 24.66%
* CCc1nnc(CN(CC)C(=O)CCc2scnc2C)o1 : A: -22.43%; B: 1.111%; C: 1.695%; D: 11.69%; E: 12.82%
* O=C1CC(c2ccc(F)cc2)c2cnn(C3CCCC3)c2N1 (stereo unspecified) : A: -19.58%; B: 9.195%; C: -10.89%; D: 24.37%; E: 6.452%
* COc1cc(-c2cc(C3CCOC3)c(C#N)c(N)n2)ccc1O (stereo unspecified) : A: -8.717%; B: 1.02%; C: 0.6808%; D: 14.88%; E: 13.89%
* O=C(Nc1ccc2c(c1)C(=O)NC2=O)c1ccc(Cl)s1 : A: -9.022%; B: 1.587%; C: 12.08%; D: 21.15%; E: 20%
* Fc1cccc(-c2noc3c2CN(Cc2cncn2C2CC2)CC3)c1 : A: -23.74%; B: 13.6%; C: 4.376%; D: 11.21%; E: 22.95%
* CN(Cc1ccccc1)C1(C(=O)NC(C)(C)CO)Cc2ccccc2C1 : A: -22.23%; B: 5.464%; C: -9.458%; D: 4.688%; E: 0%
* N[C@H]1CN(C(=O)Cc2ccc(CO)cc2)C[C@@H]1C1CC1 : A: -18.96%; B: 11.45%; C: -8.603%; D: -16.83%; E: 17.58%
* CS(=O)(=O)N1CCCC12CCCN(C(=O)c1ccncc1)C2 (stereo unspecified) : A: -28.17%; B: 1.087%; C: -2.209%; D: 2.13%; E: 14.47%
* CCN1CCCC2(CCN(Cc3nnc(C4CC4)o3)C2)C1=O (stereo unspecified) : A: -3.088%; B: 2.4%; C: -12.72%; D: 36.8%; E: 2.655%
* CC(C)(C)OC(=O)NCC1CCN(C(=O)c2ccc(F)cc2F)C1 (stereo unspecified) : A: -20.81%; B: 3.191%; C: -0.9608%; D: 18.27%; E: 15.62%
* Cc1nc(CN2CCN(C)C(=O)C23CCN(C(C)C)CC3)cs1.O=C(O)C(F)(F)F : D: 15.41%
* O=S(=O)(NCC1(O)CCOc2ccccc21)c1ccccc1F (stereo unspecified) : B: 5.102%; C: -7.923%; D: 5.264%; E: 11.57%
* Cc1cccc(=O)n1CCC(=O)N1CCC2(CC1)OCCCC2O (stereo unspecified) : A: -10.47%; B: 2.128%; C: -5.301%; D: 25.3%; E: 18.57%
* CC(NC(=O)Nc1cccnc1N1CCCC1)c1ccn(C)c1 (stereo unspecified) : A: -20.92%; B: 11.34%; C: -12.43%; D: 17.51%; E: 20.18%
* Cc1nn(C)c(Cl)c1C1CCCN1Cc1nnc(C2CC2)n1C (stereo unspecified) : A: -7.224%; B: 3.191%; C: -1.988%; D: -8.061%; E: 19.4%
* CCOCC1CN(Cc2cccs2)Cc2nn(C)cc21 (stereo unspecified) : A: -1.272%; B: 4.132%; C: 2.723%; E: 5.455%
* CCC(C)N(Cc1ccncc1)Cc1cccc(Cn2cccn2)c1 (stereo unspecified) : A: -28.78%; B: 1.676%; C: -9.492%; D: 7.591%; E: 15.79%

Some entries from above, unchanged:

* CC(C)(C)OC(=O)NCC1CCN(C(=O)c2ccc(F)cc2F)C1 (stereo unspecified) : A: -20.81%; B: 3.191%; C: -0.9608%; D: 18.27%; E: 15.62%
* CS(=O)(=O)N1CCCC12CCCN(C(=O)c1ccncc1)C2 (stereo unspecified) : A: -28.17%; B: 1.087%; C: -2.209%; D: 2.13%; E: 14.47%